According to patent US6825173B2, “Preparation of fagopyritols and uses therefor” (Cornell Research Foundation, Inc., priority 1997, dated 2004):

Columns and labels:
[1] = Acid hydrolysis with trifluoroacetic acid, hydrolysis products and mole ratios by GC; conditions: Hydrolysis by 2 N trifluoroacetic acid
[2] = Analysis of chirality of chiro-inositol by chiral column GC; conditions: Hydrolysis by 2 N trifluoroacetic acid; chiral capillary column GC
[3] = tested on: yeast; assay: Yeast digestion of sucrose and fagopyritols in buckwheat flour extract; conditions: for soluble carbohydrate amount during yeast incubation: Birkett Mills flour extract

Row | Compound | Partial hydrolysis products ([1]; Fagopyritol A and B Series) | D-chiro-inositol (present in acid hydrolysis products) [2] | L-chiro-inositol (present in acid hydrolysis products) [2] | other results
1 | OCC1O[C@@H](O[C@H]2C(O)C(O)[C@H](O)C(O)C2O)C(O)C(O)[C@H]1O (stereo partly drawn) [Fagopyritol A1, O-α-D-galactopyranosyl-(1→3)-D-chiro-inositol] | D-chiro-inositol; also recorded: D-galactose | yes | no | –
2 | OCC1O[C@H](OCC2O[C@@H](O[C@H]3C(O)C(O)[C@H](O)C(O)C3O)C(O)C(O)[C@H]2O)C(O)C(O)[C@H]1O (stereo partly drawn) [Fagopyritol A2, O-α-D-galactopyranosyl-(1→6)-O-α-D-galactopyranosyl-(1→3)-D-chiro-inositol] | Fagopyritol A1; also recorded: galactobiose; also recorded: D-galactose; also recorded: D-chiro-inositol | yes | no | –
3 | OCC1O[C@H](OC2C(O)[C@H](O)C(O)C(O)[C@@H]2O)C(O)C(O)[C@H]1O (stereo partly drawn) [Fagopyritol B1, O-α-D-galactopyranosyl-(1→2)-D-chiro-inositol] | D-galactose; also recorded: D-chiro-inositol | yes | no | –
4 | OCC1O[C@H](OCC2O[C@H](OC3C(O)[C@H](O)C(O)C(O)[C@@H]3O)C(O)C(O)[C@H]2O)C(O)C(O)[C@H]1O (stereo partly drawn) [Fagopyritol B2, O-α-D-galactopyranosyl-(1→6)-O-α-D-galactopyranosyl-(1→2)-D-chiro-inositol] | Fagopyritol A1; also recorded: galactobiose; also recorded: D-galactose; also recorded: D-chiro-inositol | yes | no | –
5 | OC[C@H]1O[C@H](OC2[C@@H](O)[C@H](O)C(O)[C@H](O)[C@@H]2O)[C@H](O)[C@@H](O)[C@H]1O (stereo partly drawn) [Galactinol (gt1)] | – | – | – | Partial hydrolysis products ([1]; Galactinol Series): myo-inositol; also recorded: D-galactose
6 | OC[C@H]1O[C@@](CO)(O[C@H]2O[C@H](CO)[C@@H](O)[C@H](O)[C@H]2O)[C@@H](O)[C@@H]1O [sucrose] | – | – | – | fraction digested by yeast ([3]; 50 mg of yeast, Birkett Mills flour, within the first 2 h): About 97%; soluble carbohydrate amount during yeast incubation ([3]; 50 mg yeast, 0 h): 35.8 mg/25 g flour; soluble carbohydrate amount during yeast incubation ([3]; 50 mg yeast, 2 h): 0.9 mg/25 g flour; soluble carbohydrate amount during yeast incubation ([3]; 100 mg yeast, 0 h): 31.6 mg/25 g flour; fraction digested by yeast ([3]; cake yeast 8500 mg, 22° C., within the first 6 h): About 97%; digestion by / stability to yeast (in words) ([3]; incubation of buckwheat flour extract with yeast): digested within the first 6 h
7 | OC[C@H]1O[C@H](O[C@H]2O[C@H](CO)[C@@H](O)[C@H](O)[C@H]2O)[C@H](O)[C@@H](O)[C@@H]1O [trehalose, O-α-D-glucopyranosyl-(1-1′)-O-α-D-glucoside] | – | – | – | soluble carbohydrate amount during yeast incubation ([3]; 50 mg yeast, 2 h): 2.9 mg/25 g flour; soluble carbohydrate amount during yeast incubation ([3]; 50 mg yeast, 4 h): 2.8 mg/25 g flour; soluble carbohydrate amount during yeast incubation ([3]; 50 mg yeast, 6 h): 2.9 mg/25 g flour; soluble carbohydrate amount during yeast incubation ([3]; 100 mg yeast, 0 h): 1.0 mg/25 g flour; soluble carbohydrate amount during yeast incubation ([3]; 100 mg yeast, 2 h): 5.2 mg/25 g flour; soluble carbohydrate amount during yeast incubation ([3]; 100 mg yeast, 4 h): 4.5 mg/25 g flour; soluble carbohydrate amount during yeast incubation ([3]; 100 mg yeast, 6 h): 4.5 mg/25 g flour
8 | O-α-D-galactopyranosyl-(1→6)-O-α-D-galactopyranosyl-(1→6)-O-α-D-galactopyranosyl-(1→2)-D-chiro-inositol [Fagopyritol B3] | Fagopyritol B1; also recorded: Fagopyritol B2 | – | – | –
9 | O-α-D-galactopyranosyl-(1→6)-O-α-D-galactopyranosyl-(1→6)-O-α-D-galactopyranosyl-(1→3)-D-chiro-inositol [Fagopyritol A3] | Fagopyritol A2; also recorded: Fagopyritol A1; also recorded: galactotriose; also recorded: galactobiose; also recorded: D-galactose; also recorded: D-chiro-inositol | yes | no | –

“Also recorded” adds a separate entry of the source.
